# Test results: PMC7862700
# Sequences of proteins named here, by UniProt entry; tags and fusion partners are left off. A change or cut given only in a name is not applied to a line headed by its entry.
# UniProt Q9Y603: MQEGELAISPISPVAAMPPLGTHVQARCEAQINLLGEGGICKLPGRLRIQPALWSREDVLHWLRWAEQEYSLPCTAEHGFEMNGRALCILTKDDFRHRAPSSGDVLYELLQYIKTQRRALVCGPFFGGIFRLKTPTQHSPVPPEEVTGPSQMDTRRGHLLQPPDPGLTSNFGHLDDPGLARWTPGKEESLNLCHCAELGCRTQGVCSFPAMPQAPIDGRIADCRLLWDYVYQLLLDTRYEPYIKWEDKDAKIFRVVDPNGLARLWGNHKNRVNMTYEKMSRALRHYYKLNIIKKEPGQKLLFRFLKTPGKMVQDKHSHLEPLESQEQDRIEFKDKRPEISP
# UniProt P41212: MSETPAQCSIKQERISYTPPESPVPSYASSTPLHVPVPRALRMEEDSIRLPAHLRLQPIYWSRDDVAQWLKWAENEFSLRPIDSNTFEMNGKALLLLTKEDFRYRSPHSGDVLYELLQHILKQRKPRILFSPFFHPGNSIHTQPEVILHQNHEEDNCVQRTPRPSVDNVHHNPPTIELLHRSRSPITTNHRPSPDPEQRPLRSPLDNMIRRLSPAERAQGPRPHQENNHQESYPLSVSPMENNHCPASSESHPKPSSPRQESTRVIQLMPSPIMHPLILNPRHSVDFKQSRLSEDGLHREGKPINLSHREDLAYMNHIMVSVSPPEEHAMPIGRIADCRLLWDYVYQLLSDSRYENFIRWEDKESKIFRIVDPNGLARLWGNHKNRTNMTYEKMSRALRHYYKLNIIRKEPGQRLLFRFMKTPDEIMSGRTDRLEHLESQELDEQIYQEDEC
# This is a selection; strong and weak results do not stand in their true shares. At the low end of the ranking the order means little.
# What was measured:
# Assay in all cases: DAPPL (digital affinity profiling via proximity ligation, sequencing)
# Conditions in all cases: 10 mM Tris-HCl pH 7.5, 50 mM NaCl, 1 mM DTT, 4% glycerol, room temperature, 30 min; GST-TFs on glutathione beads, 16-mer random dsDNA library, 0.1% …; high values mean tight binding; double strand, one strand shown; scale: fold enrichment (6-mer frequency, TF over GST control)
# ELF3 = target: T1, ELF3 (UniProt P78545)
# T1 sequence: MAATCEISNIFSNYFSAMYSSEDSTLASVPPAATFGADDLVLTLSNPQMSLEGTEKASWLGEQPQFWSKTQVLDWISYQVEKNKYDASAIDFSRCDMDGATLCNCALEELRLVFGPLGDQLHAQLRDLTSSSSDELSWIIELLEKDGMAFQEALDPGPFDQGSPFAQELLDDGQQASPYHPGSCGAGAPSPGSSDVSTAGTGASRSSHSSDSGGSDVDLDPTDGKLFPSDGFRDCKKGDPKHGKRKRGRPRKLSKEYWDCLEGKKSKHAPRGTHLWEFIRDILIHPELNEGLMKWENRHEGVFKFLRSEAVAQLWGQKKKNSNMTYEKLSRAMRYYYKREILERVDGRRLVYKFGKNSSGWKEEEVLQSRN
# ETV7 = ETV7 (UniProt Q9Y603)
# ETV6 = ETV6 (UniProt P41212)
Sequence,binding signal (ELF3),binding signal (ETV7),binding signal (ETV6)
CGCCAT,0.91,0.911,0.941
AGATAA,0.929,0.93,1.06
ACGGTA,0.948,0.976,0.997
CCTAAT,1.52,1.31,1.31
CATAAA,1.08,0.981,0.983
CATCCA,0.994,0.899,0.91
GTGGTC,0.704,0.835,0.78
ATCCGT,0.883,0.91,0.899
GTGCCG,0.932,0.91,0.966
TCGAAG,0.801,0.888,0.838
GGCATA,0.769,0.906,0.971
GCATTA,0.908,0.845,0.881
GCAGGT,0.974,0.879,0.87
GTACAG,0.841,1.06,0.985
GCGCGT,0.88,0.973,0.87
GAGAAT,0.855,0.78,0.761
TCCAGA,0.852,0.803,0.877
TCGCGA,0.822,0.923,0.902
ACCAAA,0.892,0.93,1.03
GATCAA,0.911,0.987,1.07
GAACTG,0.936,0.895,0.984
GAAGCC,0.836,1.12,1.09
GCCCTG,0.904,0.993,0.963
GCGAAG,0.922,0.973,0.836
GCAGAT,0.958,0.831,0.903
CCGTAT,0.943,1.09,1.24

Sequence,binding signal (ELF3),binding signal (ETV7),binding signal (ETV6)
GTATTG,0.939,0.981,0.99
CCAAGA,0.996,0.883,0.885
CGCTGT,0.965,0.977,0.958
AGCAGA,0.927,0.962,0.917
GGCTTT,0.966,1.16,1.06
GTATGT,0.953,0.961,0.932
ATGGGA,0.906,0.986,0.962
TTCAGA,0.838,0.855,0.919
GCCATT,0.979,0.962,0.947
CATAGA,0.892,0.95,0.933
ATTCGG,0.935,0.935,0.948
TCGAGT,0.907,0.865,0.885
CCAACA,1.06,1.05,0.966
CTGTAG,0.861,0.977,0.99
CGCAAA,1.13,0.972,0.966
GCAGCA,0.86,0.89,0.912
GGGCAT,0.719,0.836,0.872
GGACTC,0.952,0.954,0.95
GGCACC,0.784,0.789,0.793
GAATCA,0.959,0.908,0.934
CTAGGA,0.987,0.859,0.915
GATAAG,0.857,0.874,0.887
TTAAGA,0.886,1.13,1.05
TCGCGT,0.905,0.997,0.938
AGAATC,0.907,0.945,0.903
GTTCGT,0.963,0.944,0.99

# Record cards (already shown). Values in the order: binding signal (ELF3) | binding signal (ETV7) | binding signal (ETV6)
# CATAAA is listed as 1.08 | 0.981 | 0.983
# CATCCA is listed as 0.994 | 0.899 | 0.91
